Source: publication PMC10893103, “Cyclodextrin-Enabled Enantioselective Complexation Study of Cathinone Analogs” (Molecules, 2024)

Experiments:
[1] = Affinity capillary electrophoresis (ACE), pH 7.4; conditions: 30 mM phosphate buffer pH 7.4; at the optimal CD concentration printed in brackets beside the value
Source text: To assess the CD complex formation capability of the five cathinone derivatives, we devised a screening ACE method tailored to closely mimic physiological conditions. In a preliminary study, the ACE conditions were optimized regarding the type, pH, and concentration of the background electrolyte, the applied voltage, and the injection parameters. […] In order to avoid high Joule heat generation, sufficiently low voltage should be used; thus, after registering the Ohm plot (I-U plot), it was set to 15 kV. Throughout our ACE measurements, corrections for viscosity and ionic strength were systematically implemented to ensure precise determination of complex stability constants.
The CE experiments were performed on a HP ^3DCE and on an Agilent 7100 instrument (Agilent Technologies, Waldbronn, Germany) equipped with a photodiode array detector and the Chemstation software for data handling. Untreated fused silica capillaries (50 µm id, 48.5 cm total, 40 cm effective length) were purchased from Agilent. Conditioning of new capillary was conducted by flushing with 1 M NaOH followed by 0.1 M NaOH and water for 30 min each. Prior to all runs, the capillary was preconditioned by rinsing with BGE (2 min). The temperature of the capillary was set to 25 °C. UV detection was performed at 215 nm, and 15–25 kV voltage was applied. Samples were injected hydrodynamically (150 mbar·sec, optimized in the 50–500 mbar·sec range). The CE-pH measurements were carried out applying 25 kV voltage and 200 mbar·sec injection.
The background electrolyte of the CE-pH measurements contained 25 mM Na2HPO4 and 25 mM Na2B4O7, and the appropriate pH was adjusted with hydrochloric acid. During the ACE measurements, 30 mM phosphate buffer pH 7.4 (30 mM Na2HPO4—NaOH) was used. The running buffer was 20 mM acetic acid adjusting with 1 M Tris the pH to 4.5 during the chiral screening experiments. The BGEs contained CDs at various concentrations (0.25–20 mM) in the ACE experiments and 1-5-10 mM in the chiral method optimization experiments.
Stock solutions of each cathinone analog (mephedrone, flephedrone, 4-MEC, butylone, and MDPV) were prepared separately in methanol (1 mg/ml), and appropriate dilutions with water were used to prepare sample solutions for the CE-pH titration and for the ACE studies applying DMSO as EOF marker, while their mixture was used during the chiral separation studies.
The simplest way to determine the mobility is from the migration times (tmax) read from the electropherograms from which the apparent mobility could be calculated, but more accurate mobility values could be obtained by the determination with the Haarhoff–van der Linde (HVL) function based on Equation (2). (2) HVLδ(t;a0,a1,a2,a3δ)=a0/a2a3δ2πexp[−1/2(t−a1/a2)^2]/1/exp(a3δ)−1+1/2[1+erf(t−a1/2a2)] where a0 is the area of the HVL function, a1 is the position of the Gaussian component, a2 is the standard deviation of the Gaussian component, and a3δ is the peak shape distortion. The application of the HVL function is necessary in the case of accurate ACE measurements because, in several cases, the peaks are distorted due to the complex formation, which makes reading the migration times and calculating the mobility more difficult and imprecise.
The most popular technique for quantifying the analyte–ligand interaction with CE is mobility shift ACE.

[2] = Chiral CE enantioseparation screening, pH 4.5
[3] = Chiral CE enantioseparation screening, pH 4.5; remark: listed apart in the source
[4] = Chiral CE enantioseparation screening, pH 4.5; remark: listed apart in the source
[5] = Chiral CE enantioseparation screening, pH 4.5; remark: listed apart in the source
[6] = Chiral CE enantioseparation screening, pH 4.5; remark: listed apart in the source
[7] = 20 mM acetate buffer pH 4.5, CD 1 mM
[8] = 20 mM acetate buffer pH 4.5, CD 5 mM
[9] = 20 mM acetate buffer pH 4.5, CD 10 mM
[10] = 20 mM acetate buffer pH 4.5, CD 1-5 mM
[11] = 20 mM acetate buffer pH 4.5, CD 1-5-10 mM

| Compound | Enantioseparation (Rs) of 4-MEC [2, 7] | Enantioseparation (Rs) of 4-MEC [2, 8] | Enantioseparation (Rs) of 4-MEC [2, 9] | Enantioseparation (Rs) of Butylone [3, 7] | Enantioseparation (Rs) of Butylone [3, 8] | Enantioseparation (Rs) of Butylone [3, 9] | Enantioseparation (Rs) of Mephedrone [4, 7] | Enantioseparation (Rs) of Mephedrone [4, 8] | Enantioseparation (Rs) of Mephedrone [4, 9] | Enantioseparation (Rs) of Flephedrone [5, 7] | Enantioseparation (Rs) of Flephedrone [5, 8] | Enantioseparation (Rs) of Flephedrone [5, 9] | Enantioseparation (Rs) of MDPV [6, 7] | Enantioseparation (Rs) of MDPV [6, 8] | Enantioseparation (Rs) of MDPV [6, 9] | Enantioseparation (Rs) of 4-MEC [2, 11] | Enantioseparation (Rs) of Butylone [3, 11] | Enantioseparation (Rs) of Mephedrone [4, 11] | Enantioseparation (Rs) of Flephedrone [5, 11] | Enantioseparation (Rs) of MDPV [6, 11] | further results |
| --- | --- | --- | --- | --- | --- | --- | --- | --- | --- | --- | --- | --- | --- | --- | --- | --- | --- | --- | --- | --- | --- |
| CC(=O)O[C@@H]1[C@@H](OC(C)=O)[C@H]2O[C@H]3[C@H](OC(C)=O)[C@@H](OC(C)=O)[C@@H](O[C@H]4[C@H](OC(C)=O)[C@@H](OC(C)=O)[C@@H](O[C@H]5[C@H](OC(C)=O)[C@@H](OC(C)=O)[C@@H](O[C@H]6[C@H](OC(C)=O)[C@@H](OC(C)=O)[C@@H](O[C@H]7[C@H](OC(C)=O)[C@@H](OC(C)=O)[C@@H](O[C@H]8[C@H](OC(C)=O)[C@@H](OC(C)=O)[C@@H](O[C@@H]1[C@@H](COS(=O)(=O)O)O2)O[C@@H]8COS(=O)(=O)O)O[C@@H]7COS(=O)(=O)O)O[C@@H]6COS(=O)(=O)O)O[C@@H]5COS(=O)(=O)O)O[C@@H]4COS(=O)(=O)O)O[C@@H]3COS(=O)(=O)O [HDAS-β-CD, heptakis-(2,3-O-diacethyl, 6-O-sulfo)-β-CD] | 2.7 | 7.3 | 7.7 | 3.7 | 9.5 | 11.4 | 2.1 | 6.2 | 8.4 | 5.1 | 13.1 | 8.0 | 1.4 | 6.1 | 8.5 | – | – | – | – | – | 4-MEC maximal enantioresolution Rs [1]: 7.9; Flephedrone maximal enantioresolution Rs [1]: 2.8; MDPV maximal enantioresolution Rs [1]: 2.3; Mephedrone maximal enantioresolution Rs [1]: 8.6 |
| COC[C@H]1O[C@@H]2O[C@H]3[C@H](OC)[C@@H](OC)[C@@H](O[C@H]4[C@H](OC)[C@@H](OC)[C@@H](O[C@H]5[C@H](OC)[C@@H](OC)[C@@H](O[C@H]6[C@H](OC)[C@@H](OC)[C@@H](O[C@H]7[C@H](OC)[C@@H](OC)[C@@H](O[C@H]1[C@H](OC)[C@H]2OC)O[C@@H]7COC)O[C@@H]6COC)O[C@@H]5COC)O[C@@H]4COC)O[C@@H]3COC [TRIME-α-CD, permethylated-α-CD] | – | – | 0.8 | – | – | 0 | – | – | 0.7 | – | – | 0.6 | – | – | 0 | – | – | – | – | – | Enantioseparation (Rs) of 4-MEC [2, 10]: 0; Enantioseparation (Rs) of Butylone [3, 10]: 0; Enantioseparation (Rs) of Mephedrone [4, 10]: 0; Enantioseparation (Rs) of Flephedrone [5, 10]: 0; Enantioseparation (Rs) of MDPV [6, 10]: 0 |
| COCC1OC2OC3C(COC)OC(OC4C(COC)OC(OC5C(COC)OC(OC6C(COC)OC(OC7C(COC)OC(OC8C(COC)OC(OC1C(OC)C2OC)C(OC)C8OC)C(OC)C7OC)C(OC)C6OC)C(OC)C5OC)C(OC)C4OC)C(OC)C3OC (stereo not drawn) [TRIME-β-CD, permethylated-β-CD] | – | – | – | – | – | – | – | – | – | – | – | – | – | – | – | 0 | 0 | 0 | 0 | 0 | – |
| COC[C@H]1O[C@@H]2O[C@H]3[C@H](OC)[C@@H](OC)[C@@H](O[C@H]4[C@H](OC)[C@@H](OC)[C@@H](O[C@H]5[C@H](OC)[C@@H](OC)[C@@H](O[C@H]6[C@H](OC)[C@@H](OC)[C@@H](O[C@H]7[C@H](OC)[C@@H](OC)[C@@H](O[C@H]8[C@H](OC)[C@@H](OC)[C@@H](O[C@H]9[C@H](OC)[C@@H](OC)[C@@H](O[C@H]1[C@H](OC)[C@H]2OC)O[C@@H]9COC)O[C@@H]8COC)O[C@@H]7COC)O[C@@H]6COC)O[C@@H]5COC)O[C@@H]4COC)O[C@@H]3COC [TRIME-γ-CD, permethylated-γ-CD] | – | – | – | – | – | – | – | – | – | – | – | – | – | – | – | 0 | 0 | 0 | 0 | 0 | – |
| OC[C@H]1O[C@@H]2O[C@H]3[C@H](O)[C@@H](O)[C@@H](O[C@H]4[C@H](O)[C@@H](O)[C@@H](O[C@H]5[C@H](O)[C@@H](O)[C@@H](O[C@H]6[C@H](O)[C@@H](O)[C@@H](O[C@H]7[C@H](O)[C@@H](O)[C@@H](O[C@H]8[C@H](O)[C@@H](O)[C@@H](O[C@H]9[C@H](O)[C@@H](O)[C@@H](O[C@H]1[C@H](O)[C@H]2O)O[C@@H]9CO)O[C@@H]8CO)O[C@@H]7CO)O[C@@H]6CO)O[C@@H]5CO)O[C@@H]4CO)O[C@@H]3CO [γ-CD] | – | – | – | – | – | – | – | – | – | – | – | – | – | – | – | – | – | – | – | – | Enantioseparation (Rs) of 4-MEC [2, 10]: 0; Enantioseparation (Rs) of Butylone [3, 10]: 0; Enantioseparation (Rs) of Mephedrone [4, 10]: 0; Enantioseparation (Rs) of Flephedrone [5, 10]: 0; Enantioseparation (Rs) of MDPV [6, 10]: 0 |
| hydroxypropylated-α-CD [HP-α-CD] | – | – | 0.6 | – | – | 0 | – | – | 0.3 | – | – | 0 | – | – | 0.3 | – | – | – | – | – | Enantioseparation (Rs) of 4-MEC [2, 10]: 0; Enantioseparation (Rs) of Butylone [3, 10]: 0; Enantioseparation (Rs) of Mephedrone [4, 10]: 0; Enantioseparation (Rs) of Flephedrone [5, 10]: 0; Enantioseparation (Rs) of MDPV [6, 10]: 0 |
| hydroxypropylated-β-CD [HP-β-CD] | 0 | 0.3 | 0.3 | 0 | 0 | 0 | 0 | 0.3 | 0.3 | 0 | 0 | 0 | 0 | 0.5 | 0.4 | – | – | – | – | – | – |
| hydroxypropylated-γ-CD [HP-γ-CD] | – | – | – | – | – | – | – | – | – | – | – | – | – | – | – | 0 | 0 | 0 | 0 | 0 | – |
| randomly methylated-α-CD [RAME-α-CD] | – | – | – | – | – | – | – | – | – | – | – | – | – | – | – | 0 | 0 | 0 | 0 | 0 | – |
| randomly methylated-γ-CD [RAME-γ-CD] | – | – | – | – | – | – | – | – | – | – | – | – | – | – | – | 0 | 0 | 0 | 0 | 0 | – |
| sulfated-γ-CD [S-γ-CD] | 0.5 | 0.6 | 0 | 0.6 | 0.7 | 1.4 | 0.7 | 1.1 | 1.0 | 0 | 0 | 0 | 0 | 1.1 | 1.5 | – | – | – | – | – | – |
| sulfopropylated-γ-CD [SP-γ-CD] | 0 | 0 | 0.9 | 0 | 0 | 0.4 | 0 | 0 | 0.8 | 0 | 0 | 0 | 0 | 0 | 0 | – | – | – | – | – | – |
